From publication doi:10.1101/2020.08.12.247809
Results are given in words; binding and its absence hold for the method and conditions named. Binding seen in cells or lysates may run through a third protein. Some binding calls cover weakened binding; strength is not graded here. Sequences can lack the tags named with a protein.

Legend:
Assay in all cases: pull-down
[1] = biological target: T1, Flag-Strep-tagged KIAA1841▵BTB (mouse) (UniProt Q68FF0)
T1 sequence: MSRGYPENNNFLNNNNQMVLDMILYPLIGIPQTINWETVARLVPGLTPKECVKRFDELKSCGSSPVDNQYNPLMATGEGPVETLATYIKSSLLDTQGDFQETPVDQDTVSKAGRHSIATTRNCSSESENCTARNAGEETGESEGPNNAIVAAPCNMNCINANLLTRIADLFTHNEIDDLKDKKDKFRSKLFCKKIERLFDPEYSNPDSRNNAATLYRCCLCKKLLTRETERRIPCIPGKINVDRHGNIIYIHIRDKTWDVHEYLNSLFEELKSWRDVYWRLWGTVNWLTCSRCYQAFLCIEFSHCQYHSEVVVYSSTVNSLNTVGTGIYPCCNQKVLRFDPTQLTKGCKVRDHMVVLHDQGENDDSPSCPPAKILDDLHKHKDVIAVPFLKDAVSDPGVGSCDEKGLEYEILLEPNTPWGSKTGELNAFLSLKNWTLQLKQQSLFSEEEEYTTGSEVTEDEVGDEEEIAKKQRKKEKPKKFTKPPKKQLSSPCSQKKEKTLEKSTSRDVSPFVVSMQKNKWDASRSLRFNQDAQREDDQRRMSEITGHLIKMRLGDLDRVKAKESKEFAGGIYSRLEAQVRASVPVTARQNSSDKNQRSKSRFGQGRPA

[2] = biological target: T2, Flag-Strep-KIAA1841(WT) (mouse) (UniProt Q68FF0)
T2 sequence: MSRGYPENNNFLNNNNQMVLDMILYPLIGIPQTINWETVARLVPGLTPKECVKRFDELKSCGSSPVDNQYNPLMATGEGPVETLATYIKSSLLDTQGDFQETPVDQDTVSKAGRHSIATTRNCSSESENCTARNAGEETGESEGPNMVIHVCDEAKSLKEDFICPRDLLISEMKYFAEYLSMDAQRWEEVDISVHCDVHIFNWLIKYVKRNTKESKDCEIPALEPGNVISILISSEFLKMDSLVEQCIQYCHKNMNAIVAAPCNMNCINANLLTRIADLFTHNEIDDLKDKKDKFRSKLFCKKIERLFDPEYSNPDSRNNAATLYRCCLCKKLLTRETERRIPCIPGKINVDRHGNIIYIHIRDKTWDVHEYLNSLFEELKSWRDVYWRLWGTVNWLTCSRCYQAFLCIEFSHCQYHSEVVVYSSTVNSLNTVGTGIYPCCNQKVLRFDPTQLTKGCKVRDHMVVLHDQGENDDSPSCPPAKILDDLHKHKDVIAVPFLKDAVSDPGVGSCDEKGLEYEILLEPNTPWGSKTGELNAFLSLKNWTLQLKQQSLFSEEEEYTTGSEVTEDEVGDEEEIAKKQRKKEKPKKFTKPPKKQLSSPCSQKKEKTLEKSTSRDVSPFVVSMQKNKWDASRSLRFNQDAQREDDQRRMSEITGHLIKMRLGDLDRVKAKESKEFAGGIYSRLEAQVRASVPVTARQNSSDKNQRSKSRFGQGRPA

[3] = biological target: T3, Flag-Strep-tagged KIAA1841▵SANT (mouse) (UniProt Q68FF0)
T3 sequence: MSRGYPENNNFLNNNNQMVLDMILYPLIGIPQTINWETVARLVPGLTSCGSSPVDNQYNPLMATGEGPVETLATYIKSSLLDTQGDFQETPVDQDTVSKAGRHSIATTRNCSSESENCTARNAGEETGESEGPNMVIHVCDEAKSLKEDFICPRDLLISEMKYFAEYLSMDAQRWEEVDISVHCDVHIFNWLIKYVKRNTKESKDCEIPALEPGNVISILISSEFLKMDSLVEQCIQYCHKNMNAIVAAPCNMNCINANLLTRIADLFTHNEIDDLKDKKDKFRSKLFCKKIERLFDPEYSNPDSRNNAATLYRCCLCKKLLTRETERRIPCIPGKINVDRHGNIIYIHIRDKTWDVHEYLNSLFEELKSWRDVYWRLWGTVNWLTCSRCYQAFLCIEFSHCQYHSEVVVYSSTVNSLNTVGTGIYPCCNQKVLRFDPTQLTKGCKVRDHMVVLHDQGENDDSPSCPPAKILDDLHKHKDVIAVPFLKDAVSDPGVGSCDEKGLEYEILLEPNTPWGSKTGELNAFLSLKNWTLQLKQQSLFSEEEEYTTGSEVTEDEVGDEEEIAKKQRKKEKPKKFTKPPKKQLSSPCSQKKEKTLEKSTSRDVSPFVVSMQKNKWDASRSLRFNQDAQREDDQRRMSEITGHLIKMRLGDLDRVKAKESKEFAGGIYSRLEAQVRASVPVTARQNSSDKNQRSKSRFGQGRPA

- binding [1]: binds
- binding [2]: binds
- binding [3]: binds
B1: GFP-KIAA1841 (protein, UniProt Q68FF0-1 1-718)
chain: MSRGYPENNNFLNNNNQMVLDMILYPLIGIPQTINWETVARLVPGLTPKECVKRFDELKSCGSSPVDNQYNPLMATGEGPVETLATYIKSSLLDTQGDFQETPVDQDTVSKAGRHSIATTRNCSSESENCTARNAGEETGESEGPNMVIHVCDEAKSLKEDFICPRDLLISEMKYFAEYLSMDAQRWEEVDISVHCDVHIFNWLIKYVKRNTKESKDCEIPALEPGNVISILISSEFLKMDSLVEQCIQYCHKNMNAIVAAPCNMNCINANLLTRIADLFTHNEIDDLKDKKDKFRSKLFCKKIERLFDPEYSNPDSRNNAATLYRCCLCKKLLTRETERRIPCIPGKINVDRHGNIIYIHIRDKTWDVHEYLNSLFEELKSWRDVYWRLWGTVNWLTCSRCYQAFLCIEFSHCQYHSEVVVYSSTVNSLNTVGTGIYPCCNQKVLRFDPTQLTKGCKVRDHMVVLHDQGENDDSPSCPPAKILDDLHKHKDVIAVPFLKDAVSDPGVGSCDEKGLEYEILLEPNTPWGSKTGELNAFLSLKNWTLQLKQQSLFSEEEEYTTGSEVTEDEVGDEEEIAKKQRKKEKPKKFTKPPKKQLSSPCSQKKEKTLEKSTSRDVSPFVVSMQKNKWDASRSLRFNQDAQREDDQRRMSEITGHLIKMRLGDLDRVKAKESKEFAGGIYSRLEAQVRASVPVTARQNSSDKNQRSKSRFGQGRPA
